According to PubChem BioAssay (Tox21):
Inconclusive results, whose numbers are uncertain, are shown with a selection of clear calls. A potency beside an inconclusive call is a rough fit, not a confirmed value. Active and inactive are the calls of the source. Calls follow the shape of the full dose curve.

By UniProt entry, the sequences of proteins in these tests, tags left out.
UniProt P28223, whole entry, looked up: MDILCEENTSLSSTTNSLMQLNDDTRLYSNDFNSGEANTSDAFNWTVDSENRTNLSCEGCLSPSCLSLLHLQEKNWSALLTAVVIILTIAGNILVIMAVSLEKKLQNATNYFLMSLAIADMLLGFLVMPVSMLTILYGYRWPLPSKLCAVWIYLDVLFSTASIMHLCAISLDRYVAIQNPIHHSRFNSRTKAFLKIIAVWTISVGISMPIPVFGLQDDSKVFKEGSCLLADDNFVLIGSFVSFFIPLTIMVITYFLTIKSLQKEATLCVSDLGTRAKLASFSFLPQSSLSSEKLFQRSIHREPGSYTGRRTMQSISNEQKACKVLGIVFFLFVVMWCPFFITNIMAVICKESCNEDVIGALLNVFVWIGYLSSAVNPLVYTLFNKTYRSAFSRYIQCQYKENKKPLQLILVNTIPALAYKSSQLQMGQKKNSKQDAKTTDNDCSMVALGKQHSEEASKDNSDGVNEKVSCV

target: 5-hydroxytryptamine receptor 2A (Homo sapiens) (UniProt P28223); assay: 5-hydroxytryptamine receptor 2A (HTR2A) small molecule antagonists, cell-based qHTS assay (AID 1963586); conditions: HTR2A-CHO cells, DOI-induced calcium flux, fluorescence; series mostly up to 61.5 µM; activity, negative = inhibition: at the top concentration; also: nearly all actives have a fitted effect of over 45% in size
Procedure, shortened: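 Antagonist-mode intracellular calcium assay: DOI (4 nM) added after 5 min compound pre-incubation at room temperature to dye-loaded HTR2A-CHO cells. Fluorescence followed for 3 min, sampled every second.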
% is scaled to controls: 0 for no effect and ±100 for the full control effect; potency is read from the fitted curve at half-maximal effect.

Row | Structure (SMILES) | Potency | activity, negative = inhibition
1 | C=C(C)C1CC=C(C)CC1 (stereo unspecified) | inconclusive: 4110 nM [inhibitor, single point] | –
2 | CCCCC=O | – | inactive: 12.5%
3 | OC1CCCCC1c1ccccc1 (stereo unspecified) | – | inactive: 1.85%
4 | CO[Si](OC)(OC)c1ccccc1 | – | inactive: -34.5%
5 | CC(=O)CCC=C(C)C | inactive | –
6 | c1ccc(CN(CC2=NCCN2)c2ccccc2)cc1 | inconclusive: 11600 nM [inhibitor, single point] | –
7 | CCCCCCCCCCCCCCCCCCN(C)C | inconclusive: 11.6 nM [inhibitor, full curve, poor fit] | –
8 | O=C(OC1C[C@H]2CC[C@@H](C1)[N+]21CCCC1)C(O)(c1ccccc1)c1ccccc1 (stereo partly specified) | inconclusive: 1630 nM [inhibitor, partial curve, poor fit] | –
9 | CC/C=C\CCOC(=O)CC | – | inactive: 9.96%
10 | CCC(=O)c1c(O)cc(O)cc1O | inconclusive: 0.5 nM [inhibitor] | –
11 | C=CC(C)(O)CC/C=C(\C)CCC=C(C)C (stereo unspecified) | – | inactive: -20.6%
12 | Cc1cc(NS(=O)(=O)c2ccc(N)cc2)nc(C)n1 | inconclusive: 2050 nM [inhibitor, full curve, poor fit] | –
13 | CC1(c2ccccc2)OC(C(=O)O)=CC1=O (stereo unspecified) | inconclusive: 326 nM [inhibitor, single point] | –
14 | CCC(C(=O)NC(N)=O)c1ccccc1 (stereo unspecified) | – | inactive: -1.84%
15 | c1ccc(SCCSc2ccccc2)cc1 | – | inactive: 50.9%
16 | CC(=O)N1CCN(c2ccc(O)cc2)CC1 | – | inactive: 2.09% [at 28.5 µM]
17 | COc1cc2nc(N(C)CCCNC(=O)C3CCCO3)nc(N)c2cc1OC (stereo unspecified) | inconclusive: 1.5 nM [inhibitor] | –
18 | NCCN | inconclusive: 21500 nM [inhibitor, partial curve, poor fit] | –
19 | O=c1cc(O)c(Cl)c[nH]1 | inconclusive: 163 nM [inhibitor, single point] | –
20 | NC(Cc1c[nH]c2ccccc12)C(=O)O (stereo unspecified) | inconclusive: 20700 nM [inhibitor, single point] | –
21 | Cc1c(N)cccc1[N+](=O)[O-] | inconclusive: 303 nM [inhibitor, partial curve, poor fit] | –
22 | SC1CCCC1 | – | inactive: 2.02%
23 | CC(=O)Nc1ccc(C)c(Cl)c1 | inconclusive: 2370 nM [inhibitor, full curve, poor fit] | –
24 | C=CCSCC1Nc2cc(Cl)c(S(N)(=O)=O)cc2S(=O)(=O)N1 (stereo unspecified) | inconclusive: 29 nM [inhibitor, single point] | –
25 | CC(=O)N(CC(=O)N(C)C)c1ccccc1 | inconclusive: 5160 nM [inhibitor, full curve, poor fit] | –
26 | CC(CC(=O)Cl)CC(C)(C)C (stereo unspecified) | inconclusive: 1.9 nM [inhibitor, full curve, poor fit] | –

target: Beta-2 adrenergic receptor (Homo sapiens) (UniProt P07550); assay: Adrenergic beta2 receptor (ADRB2) small molecule agonists, cell-based qHTS assay (AID 1963593); conditions: CHO-ADRB2 cells, cAMP HTRF, 30 min; activation: at 92.4 µM (top of the series) unless noted;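 as to activation: CHO cells stably overexpressing human ADRB2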
Procedure, shortened: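 CHO cells stably over-expressing ADRB2 were plated overnight at 37C, then dosed with compounds plus a stimulation mix containing 100uM IBMX and 25uM Ro-20-1724 for 0.5hr at room temperature. cAMP was measured by HTRF competition, 1hr.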

Row | Structure (SMILES) | Potency | activation
27 | O=C(O)CNCC(=O)O | inconclusive: 13.1 nM [inhibitor, single point] | –
28 | CC(C)(C)NCCO | – | inactive: 3.68%
29 | CC(C)(O)CCCC1=CCC(C=O)CC1 (stereo unspecified) | – | inconclusive: -21.3%
30 | c1ccc(-c2nc[nH]c2-c2ccccc2)cc1 | – | inactive: -33.3% [at 42.5 µM]
31 | CCCCOC(=O)CC | – | inactive: 10.4%
32 | CC[N+]1(CC)CCC(=C(c2ccccc2)c2ccccc2)C1C (stereo unspecified) | inconclusive: 5960 nM [inhibitor, single point] | –
33 | CC(=O)OCC(=O)[C@@]1(O)[C@H](OC(C)=O)C[C@H]2[C@@H]3CCC4=CC(=O)C=C[C@]4(C)[C@@]3(F)[C@@H](O)C[C@@]21C | – | inactive: 16.9% [at 42.5 µM]
34 | O=c1[nH]c(=O)c2[nH]c(=O)[nH]c2[nH]1 | – | inactive: 11.5% [at 8.39 µM]
35 | CCN1CCC[C@H]1CNC(=O)c1c(O)c(Cl)cc(Cl)c1OC | – | inconclusive: 9.28% [at 42.5 µM]
36 | CC(C)CCCCCOC(=O)CS | – | inactive: 5.38%
37 | CC(O)CN(CCCN(C)C)CCCN(C)C (stereo unspecified) | – | inconclusive: -26.5%
38 | CO/N=C(/C(=O)N[C@@H]1C(=O)N2C(C(=O)O)=C(Cn3nnc(C)n3)CS[C@H]12)c1csc(N)n1 | – | inactive: 13.1% [at 42.5 µM]
39 | O=C(O)c1ccc[n+]([O-])c1 | – | inconclusive: 0.935% [at 42.5 µM]
40 | O=C(Cn1ccnc1[N+](=O)[O-])NCc1ccccc1 | – | inconclusive: -33.6% [at 42.5 µM]
41 | C=C(C)C1CC=C(C)CC1 (stereo unspecified) | – | inconclusive: 20.5%
42 | CCCCC=O | – | inactive: -3%
43 | OC1CCCCC1c1ccccc1 (stereo unspecified) | – | inconclusive: 4.45%
44 | CO[Si](OC)(OC)c1ccccc1 | – | inactive: 3.9%
45 | CC(=O)CCC=C(C)C | – | inconclusive: 5.62%
46 | c1ccc(CN(CC2=NCCN2)c2ccccc2)cc1 | – | inconclusive: -28.4% [at 42.5 µM]

A second format for some results above.
Row,Structure (SMILES),Potency,activation
34,O=c1[nH]c(=O)c2[nH]c(=O)[nH]c2[nH]1,–,inactive: 11.5% [at 8.39 µM]
35,CCN1CCC[C@H]1CNC(=O)c1c(O)c(Cl)cc(Cl)c1OC,–,inconclusive: 9.28% [at 42.5 µM]
36,CC(C)CCCCCOC(=O)CS,–,inactive: 5.38%

Continued.

Row | Structure (SMILES) | Potency | activation
47 | CCCCCCCCCCCCCCCCCCN(C)C | – | inactive: 0.642% [at 42.5 µM]
48 | O=C(OC1C[C@H]2CC[C@@H](C1)[N+]21CCCC1)C(O)(c1ccccc1)c1ccccc1 (stereo partly specified) | – | inactive: -1.58% [at 42.5 µM]
49 | CC/C=C\CCOC(=O)CC | – | inactive: -9.1%
50 | CCC(=O)c1c(O)cc(O)cc1O | – | inactive: 24.9% [at 42.5 µM]
51 | C=CC(C)(O)CC/C=C(\C)CCC=C(C)C (stereo unspecified) | – | inactive: 16.2%
52 | Cc1cc(NS(=O)(=O)c2ccc(N)cc2)nc(C)n1 | – | inactive: -14% [at 42.5 µM]
53 | CC1(c2ccccc2)OC(C(=O)O)=CC1=O (stereo unspecified) | – | inactive: 20.9% [at 42.5 µM]
54 | CCC(C(=O)NC(N)=O)c1ccccc1 (stereo unspecified) | – | inconclusive: 1.39%
55 | c1ccc(SCCSc2ccccc2)cc1 | – | inconclusive: 18.1%
56 | CC(=O)N1CCN(c2ccc(O)cc2)CC1 | inconclusive: 119 nM [inhibitor, single point] | –
57 | COc1cc2nc(N(C)CCCNC(=O)C3CCCO3)nc(N)c2cc1OC (stereo unspecified) | – | inactive: -30.6% [at 42.5 µM]
58 | NCCN | – | inconclusive: 0.468%
59 | O=c1cc(O)c(Cl)c[nH]1 | – | inconclusive: -7.21% [at 42.5 µM]
60 | NC(Cc1c[nH]c2ccccc12)C(=O)O (stereo unspecified) | – | inconclusive: -18% [at 42.5 µM]
61 | Cc1c(N)cccc1[N+](=O)[O-] | – | inconclusive: -60%
62 | SC1CCCC1 | – | inactive: -18%
63 | CC(=O)Nc1ccc(C)c(Cl)c1 | – | inconclusive: -1.56%
64 | C=CCSCC1Nc2cc(Cl)c(S(N)(=O)=O)cc2S(=O)(=O)N1 (stereo unspecified) | – | inconclusive: 20.1% [at 42.5 µM]
65 | CC(=O)N(CC(=O)N(C)C)c1ccccc1 | – | inactive: -8.91% [at 42.5 µM]
66 | CC(CC(=O)Cl)CC(C)(C)C (stereo unspecified) | – | inactive: 5.56%
